At least one structure is not confirmed: it was looked up by name or label, or the drawing left a doubt.
Key:
[1] = biological target: Bax (Homo sapiens, UniProt Q07812); assay: competitive fluorescence polarization (FP) assay, other Bcl2 family members; format: binding
[2] = biological target: Bcl2 (Homo sapiens, UniProt P10415); assay: as above; format: binding
[3] = biological target: Bcl-XL (Homo sapiens, UniProt Q07817); assay: as above; format: binding
[4] = biological target: T1, Bcl-w (Homo sapiens, UniProt Q92843); assay: as above; format: binding
T1 sequence (Q92843 1-193): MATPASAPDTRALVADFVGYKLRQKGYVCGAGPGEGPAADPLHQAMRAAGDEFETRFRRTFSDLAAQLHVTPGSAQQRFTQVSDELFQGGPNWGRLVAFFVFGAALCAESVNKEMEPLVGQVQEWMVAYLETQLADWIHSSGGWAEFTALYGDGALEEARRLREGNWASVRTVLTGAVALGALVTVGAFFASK

Chains of the proteins cited; added tags and fusions are not shown.
UniProt Q07812, whole entry, species assumed: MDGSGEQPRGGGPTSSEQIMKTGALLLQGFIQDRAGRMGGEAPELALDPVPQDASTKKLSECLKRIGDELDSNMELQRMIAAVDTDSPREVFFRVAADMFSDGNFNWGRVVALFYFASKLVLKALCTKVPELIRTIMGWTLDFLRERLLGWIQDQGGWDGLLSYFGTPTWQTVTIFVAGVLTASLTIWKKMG
UniProt P10415, whole entry, species assumed: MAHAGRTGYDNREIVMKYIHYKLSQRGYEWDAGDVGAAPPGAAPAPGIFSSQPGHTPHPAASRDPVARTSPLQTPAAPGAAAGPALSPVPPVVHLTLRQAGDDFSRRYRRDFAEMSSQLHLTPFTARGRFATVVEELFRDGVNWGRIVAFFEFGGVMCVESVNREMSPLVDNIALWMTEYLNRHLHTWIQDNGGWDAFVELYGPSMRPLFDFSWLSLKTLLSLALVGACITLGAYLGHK
UniProt Q07817, whole entry, species assumed: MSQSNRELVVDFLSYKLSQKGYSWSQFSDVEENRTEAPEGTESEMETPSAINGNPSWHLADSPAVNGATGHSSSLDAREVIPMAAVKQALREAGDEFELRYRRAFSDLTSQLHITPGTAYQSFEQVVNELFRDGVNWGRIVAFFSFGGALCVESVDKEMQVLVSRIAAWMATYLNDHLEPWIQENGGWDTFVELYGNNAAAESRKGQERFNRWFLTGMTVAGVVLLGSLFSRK
UniProt Q07820, whole entry, species assumed: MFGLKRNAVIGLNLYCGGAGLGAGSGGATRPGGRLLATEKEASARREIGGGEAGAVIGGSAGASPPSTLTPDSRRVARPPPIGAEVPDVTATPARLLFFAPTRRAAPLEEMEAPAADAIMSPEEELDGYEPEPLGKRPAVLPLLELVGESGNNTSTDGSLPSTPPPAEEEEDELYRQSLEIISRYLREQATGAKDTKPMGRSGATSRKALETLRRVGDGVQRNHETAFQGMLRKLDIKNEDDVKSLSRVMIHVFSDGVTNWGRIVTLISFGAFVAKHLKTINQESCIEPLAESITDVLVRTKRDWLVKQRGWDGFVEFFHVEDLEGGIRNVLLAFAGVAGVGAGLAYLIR

[5] = biological target: Mcl-1 (Homo sapiens, UniProt Q07820); assay: as above; format: binding
[6] = tested on: BH3 deletion human Bak mutant protein (ΔBH3); assay: isothermal titration calorimetry (ITC); format: binding
[7] = tested on: human lung cancer A549 cells; assay: dynamic BH3 profiling (DBP) and apoptotic cell death; format: cell-based; details: 0, 0.25, 0.5, 0.75, 1.0 μM
[8] = tested on: NSCLC and SCLC cell lines; assay: dynamic BH3 profiling and apoptotic cell death in a panel of lung cancer cell lines; format: cell-based, human; details: 1 μM
[9] = tested on: MDA-MB-231, MCF7, HCT-116, Ramos, OPM-1, PANC-1 and U2OS cell lines; assay: dynamic BH3 profiling and apoptotic cell death in other types of cancer cell lines; format: cell-based; details: breast, colon, lymphoma, multiple myeloma, pancreatic, osteosarcoma lines; 1 μM; 16 h or 72 h
[10] = tested on: Bak in A549 cells; assay: cross-linking study with Bis (maleimido) hexane (BMH) for Bak oligomerization; format: cell-based, human; details: 1 μM
[11] = tested on: A549 cells; assay: Cyt c release from mitochondria; format: cell-based, human
[12] = tested on: Bak−/− and DKO A549 cells; assay: apoptotic cell death in Bak knockout cells; format: cell-based, human; details: knockout of Bak but not Bax; lung cancer cells and xenografts
Description: Bak is a pro-apoptotic protein required for programmed cell death and apoptosis induction in cancer cells. […] Experiments indicate that BKA-073 directly binds to Bak protein and induces Bak oligomerization in mitochondria leading to activation of a proapoptotic function. Experiments indicate that BKA-073-induced Bak oligomerization promotes mitochondrial priming and Cyt c release, which are early changes in net pro-apoptotic signaling at the mitochondria. BKA-073-induced mitochondrial priming and Cyt c release leads to apoptotic cell death of lung cancer cells.
Several Bax/Bak-independent mechanisms of apoptotic cell death have been described. […] It is contemplated that, in addition to the major Bak-dependent apoptosis mechanism, BKA-073 induces a small proportion of apoptotic cell death (about 20%) through Bax/Bak-independent mechanism(s).

[13] = tested on: A549 lung cancer xenografts; assay: A549 lung cancer xenografts; format: in vivo
Experimental: Nu/Nu mice bearing A549 lung cancer xenografts were treated with increasing doses of BKA-073 (5 to 15 mg/kg/d) i.p. for 28 days. Tumor volume was measured once every 2 days. After treatment, mice were sacrificed, and tumors were removed and analyzed.
To test the potency of BKA-073 in vivo, mice carrying lung cancer xenografts derived from A549 cells were treated i.p. with increasing doses (0, 5, 10, 15 mg/kg/d) of BKA-073 for 28 days. […] To assess whether BKA-073 induced suppression of tumor growth occurs through activation of Bak and apoptosis in vivo, representative samples from harvested tumor tissues were analyzed by cross-linking with BMH for Bak oligomerization or by immunohistochemistry (IHC) for active caspase 3. […] Doses between 5 mg/kg and 15 mg/kg provide an optimal therapeutic index for BKA-073 for in vivo experimentation involving lung cancer xenografts.

[14] = tested on: SCLC xenografts derived from the DMS114 cell line; assay: SCLC DMS114 xenografts; format: in vivo, Nu/Nu mice; details: 15 mg/kg/d i.p., 2-4 weeks
[15] = tested on: PDXs from two patients with refractory SCLC (TKO-2 and TKO-5); assay: SCLC patient-derived xenografts (PDXs); format: in vivo, Nu/Nu mice; details: SCLC PDXs TKO-2 and TKO-5; 15 mg/kg/d i.p., 2-4 weeks
[16] = tested on: KRAS G12D LKB1fl/fl (KL) mice; assay: mutant KRAS-driven lung cancer GEMM; format: in vivo; details: 15 mg/kg/d i.p.
Experimental: After administration of adenovirus Cre recombinase in KRAS G12D LKB1fl/fl (KL) mice for 6 weeks, KL mice were treated with KRA-073 (15 mg/kg/d) i.p. for 48 days (n=6 mice/group). Survival of mice is shown for up to 48 days before euthanization in the control group versus the BKA-073 treatment group.
To assess the potency of BKA-073 in KRAS mutant driven lung cancer, lox-stop-lox (LSL)-KRAS G12D LKB1fl/fl (i.e. KL) mice were generated and bred. These mice contain a KRAS G12D LSL knock-in allele and a floxed allele of LKB1 (LKB1fl/fl). Primary lung adenocarcinoma was detectable as early as 6 weeks after intranasal administration of 5×10^6 pfu adenovirus expressing Cre recombinase (AdeCre) in KRAS G12D LKB1fl/fl (KL) mice.
To further assess the potential of BKA-073 as therapy for mutant KRAS-driven lung cancer, BKA-073 (15 mg/kg/d) or vehicle was administered to KL mice i.p. starting at 6 weeks post AdeCre delivery. […] To quantify tumor burden and tumor multiplicity in mice, H&E-stained lungs were imaged with morphometric software to quantify the surface area composed of tumor as opposed to normal tissue compared with the control group. There were 4 deaths out of 6 mice in the control group versus 2 deaths out of 6 mice in the BKA-073 treatment group (p<0.01), calculated up to 48 days before euthanization (FIG. 5).

[17] = tested on: A549-P, H358-P, H460-P, A549-IRR, H358-IRR and H460-IRR cells; assay: sensitivity of parental and radioresistant lung cancer cell lines; format: cell-based
[18] = tested on: NSCLC xenografts derived from A549-P and A549-IRR cell lines; assay: parental and radioresistant NSCLC xenografts; format: in vivo; details: 15 mg/kg/d, 4 weeks

Q: Which results are given for `COc1ccc2nc3ccccc3c(NCCNCC(C)O)c2c1` (centres unmarked) [BKA-073, 1-((2-((2-methoxyacridin-9-yl)amino)ethyl)amino)propan-2-ol]?
A: binding affinity [1]: very low binding affinity; binding affinity [2]: very low binding affinity; binding affinity [3]: very low binding affinity; binding affinity [4]: very low binding affinity; binding affinity [5]: very low binding affinity; binding [6]: failed to bind; apoptotic cell death ([7]; 72 h): induced mitochondrial priming and apoptosis in a dose-dependent manner; mitochondrial priming (Δ % priming) ([7]; DBP at 16 h): induced mitochondrial priming and apoptosis in a dose-dependent manner; sensitivity to induction of mitochondrial priming and apoptosis ([8]; lines with relatively higher Bak: A549, H157, H1975, DMS53, DMS114, H209, H526): more sensitive; sensitivity to induction of mitochondrial priming and apoptosis ([8]; lines with relatively lower Bak: Calu-1, H69, H128, H146): less sensitive; mitochondrial priming and apoptotic cell death [9]: potently induced mitochondrial priming and apoptotic cell death; Bak oligomerization [10]: facilitated the formation of Bak dimers and trimers; Cyt c release from mitochondria [11]: promoted Cyt c release; effect of Bak knockout on sensitivity [12]: resistance; lung cancer (tumor) growth ([13]; 0, 5, 10, 15 mg/kg/d i.p., 28 days): potently suppressed lung cancer growth in a dose-dependent fashion; Bak oligomerization and apoptosis (active caspase 3) in tumor tissues ([13]; BMH cross-linking and IHC of harvested tumors): Dose-dependent Bak oligomerization and apoptosis were observed; tumor growth [14]: potently suppressed tumor growth; tumor growth [15]: potently suppressed tumor growth; survival [16]: significantly prolonged survival; tumor burden and multiplicity in the lung [16]: significant reduction of tumor burden and multiplicity; sensitivity of parental and radioresistant cell lines [17]: sensitive; xenograft growth ([18]; A549-IRR (radioresistant) xenografts): repressed xenografts; xenograft growth ([18]; A549-P xenografts): repressed xenografts

Source: patent US20240342157A1, “BAK ACTIVATORS, PHARMACEUTICAL COMPOSITIONS, AND USES IN TREATING CANCER” (Emory University, priority 2021, published 2024)
